Record: PubChem BioAssay AID652272 (Drosophila RNAi Screening Center, 2013)
In all, the deposit lists about 21,000 reagents; shown is an unselected part of those with a known target gene and a result. Over the whole deposit, 503 (2.4%) were called active. 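Raw plate light values, not normalised; calls rest on replicate z-scores that were not deposited; hits include reporter decreases as well as increases.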 Entries without a mark were called inactive. Names joined by + are all predicted targets of the reagent. Not given: the amount of reagent, the time to read-out.

- Screen: 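Genes whose knock-down decreases or increases Hedgehog reporter output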 (primary screen)
- System: Drosophila clone 8 (Cl8) cells
- Reagent: long dsRNA against Drosophila genes
- Detection: 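Firefly light from a Hedgehog-responsive ptc promoter reporter and Renilla reference light, both read on a plate reader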
- Direction: firefly Hh reporter signal: higher = more ptc reporter light; Renilla reference signal: higher = more Renilla control light
- Hit rule: 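Hit when the z-score averaged over two replicates is under -2 or over +3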
- Meaning of the calls: active = hit: reporter lowered or raised; inactive = not a hit

target,dsRNA,"firefly Hh reporter signal, replicate 1","firefly Hh reporter signal, replicate 2","firefly Hh reporter signal, replicate 3","Renilla reference signal, replicate 1","Renilla reference signal, replicate 2"
CG32425,DRSC11739,1.14e5,68615,,3596,1840
CG32425,DRSC11764,79073,61592,,3181,2672
CG33299,DRSC01085,5.31e5,2.18e5,,27120,8994
CG31522,DRSC12005,3.12e5,,,6464,
Hand,DRSC02656,1.35e5,47867,,3250,4201
p23,DRSC15158,1.41e5,89505,,5361,2999
Gr39b (Gustatory receptor 39b),DRSC01848,1.82e5,3.33e5,,5152,15803
CG34224,DRSC05269,1.00e5,1.76e5,,3264,8160
"ATPsynGL (ATP synthase, subunit G-like)",DRSC03027,1.06e5,52086,,2050,5602
Pfdn1 (Prefoldin 1),DRSC02325,1.43e5,60725,,3549,6361
CG14212,DRSC19568,81280,2.19e5,,1795,9516
CG12620,DRSC02177,87883,59377,,2288,5780
BaraC (Baramicin C),DRSC03885,93645,2.16e5,,1459,10102
"IP3K2 (Inositol 1,4,5-triphosphate kinase 2)",DRSC19500,1.11e5,4.50e5,4.44e5,3196,2931
"IP3K2 (Inositol 1,4,5-triphosphate kinase 2)",DRSC19747,69041,2.19e5,,1493,8682
CG6380,DRSC02950,1.08e5,67680,,2640,5349
Hasp (Hig-anchoring scaffold protein),DRSC02022,99221,55216,,4418,2768
Pop2,DRSC10537,75938 (active),38135,,5324,3018
Nach,DRSC07478,58946,32455,,2016,3133
CG15629,DRSC00464,94704,93756,,2627,6410

5 entries from above, arranged by “Renilla reference signal, replicate 1”, lowest first:
target,dsRNA,"firefly Hh reporter signal, replicate 1","firefly Hh reporter signal, replicate 2","firefly Hh reporter signal, replicate 3","Renilla reference signal, replicate 1","Renilla reference signal, replicate 2"
Nach,DRSC07478,58946,32455,,2016,3133
CG15629,DRSC00464,94704,93756,,2627,6410
CG6380,DRSC02950,1.08e5,67680,,2640,5349
Hasp (Hig-anchoring scaffold protein),DRSC02022,99221,55216,,4418,2768
Pop2,DRSC10537,75938 (active),38135,,5324,3018

The results go on.
target,dsRNA,"firefly Hh reporter signal, replicate 1","firefly Hh reporter signal, replicate 2","firefly Hh reporter signal, replicate 3","Renilla reference signal, replicate 1","Renilla reference signal, replicate 2"
Adgf-C (Adenosine deaminase-related growth factor C),DRSC16473,66187,93909,,1497,2218
eve (even skipped),DRSC07614,96384,71926,,2375,5755
CG15043,DRSC19619,1.11e5,2.57e5,,3523,11282
CG31482,DRSC12582,48796,88372,,1415,2470
CG13044,DRSC09925,1.35e5,,,3034,4011
CG15439,DRSC00453,3.56e5,1.24e5,,5856,5856
lncRNA:iab8 (long non-coding RNA:iab8),DRSC13187,48378,2.82e5,,10420,5649
CG32264,DRSC08061,50695 (active),1.08e5,,2032,6441
CG32264,DRSC08167,65908,52116,,2040,3813
CG32264,DRSC08169,72498,85031,,3338,3192
CG32264,DRSC08285,1.27e5,5.50e5,66886,3604,31364
CG32264,DRSC08437,37268,22499,,1442,1650
CG10859,DRSC02110,53240,39980,,2012,1322
Usp12-46 (Ubiquitin-specific protease 12/46),DRSC16175,5.60e5,73347,,27892,2528
lncRNA:CR43334 (long non-coding RNA:CR43334),DRSC07894,1.33e5,2.51e5,,3690,11266
lncRNA:CR43334 (long non-coding RNA:CR43334),DRSC07895,82876,1.81e5,,2281,7164
CG43106,DRSC04279,93680,76187,,1911,6565
CG14744,DRSC06480,87042,48091,,2021,3512
Rrp46,DRSC15537,1.66e5,1.21e5,,5712,4000
ctp (cut up),DRSC18758,1.49e5,81085,,2904,1789
kcc (kazachoc),DRSC04316,1.09e5,81382,,5066,3271
kcc (kazachoc),DRSC04516,91260,61392,,2729,5642
Dpit47 (DNA polymerase interacting tpr containing protein of 47kD),DRSC04985,70166,38491,,1626,3092
Syn1 (Syntrophin-like 1),DRSC11803,1.33e5,1.20e5,,4592,6931
Syn1 (Syntrophin-like 1),DRSC11804,96480,1.05e5,,3114,5992
Liprin-gamma,DRSC04093,5.83e5,89571,,3901,3901
CG15169,DRSC02470,72162,42715,,2100,4409
"Smyd4-3 (SET and MYND domain containing, class 4, member 3)",DRSC07041,86194,38992,,3495,1730
atlas,DRSC04183,97680,47485,,1140,4621
BobA,DRSC09889,1.27e5,,,1856,3053
Lsd-2 (Lipid storage droplet-2),DRSC20143,1.39e5,1.00e5,,3059,2637
CG7289,DRSC00697,1.12e5,1.19e5,,4211,4544
CG14022,DRSC02352,1.12e5,54504,,3159,5180
tgy (twiggy),DRSC20045,51552,2.35e5,,1411,8841
Dad1 (Defender against apoptotic cell death 1),DRSC02263,1.15e5,67627,,2811,4160
His2B:CG33894 + His2B:CG33872 + His2B:CG33902 + 20 more,DRSC21265,16034,22516,,349,1124
CG43335,DRSC15764,67072,1.26e5,,1940,2987
